Reference: PubChem BioAssay AID504648 (National Center for Advancing Translational Sciences (NCATS), 2011)
The campaign covered roughly 390,000 compounds. About 610 (0.16%) were called active. The shares of active, inactive and inconclusive entries below differ from those in the screen. Calls come from the whole dose curve; as a rule, active = well fitted inhibition curve with a large enough effect; inconclusive = small, poorly fitted or top-dose-only effect, or effect the other way, or another doubt; inactive = no such curve, though single readings can be large or run the other way. Potencies beside an inconclusive call are fits to weak or partial responses and may not hold up.

Test: Nrf2 qHTS screen for inhibitors: counterscreen for cytotoxicity
Conditions: A549 ARE-Fluc cells, CellTiter-Fluor viability, 18-24 h; activity change, negative = cytotoxicity: at 46 µM (top of the series)
Method in brief: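 A549 ARE_Fluc cells in 5% FBS OPTI-MEM were exposed to compounds in concentration-response for 18-24 h at 37 deg C. Viability was read by CellTiter-Fluor fluorescence (Ex 405/Em 525) after 30 min, before the luciferase read.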
% is set by controls: 0 for no effect and ±100 for the full control effect; potency is the fitted concentration of half-maximal effect.

| SMILES | Potency | activity change, negative = cytotoxicity |
| --- | --- | --- |
| CCc1ccc(Nc2cnn(-c3nc4ccccc4s3)c(=O)c2Cl)cc1 | inconclusive: 32.6 µM [falling, partial curve, poor fit] |  |
| CCn1cc(C2=NCC(C)O2)c2ccccc21 (stereo not given) | inconclusive: 23.1 µM [activator, partial curve, poor fit] |  |
| COC(=O)Cc1ccc(NC(=S)NCc2ccc(F)cc2)cc1 |  | inactive: -1.33% |
| CC(=O)Oc1ccc(C(=O)COC(=O)CNC(=O)COc2ccccc2C)cc1 |  | inactive: 0.854% |
| COc1ccc(C(=O)NC(=S)Nc2cccnc2)cc1OC | inconclusive: 0.82 µM [falling, partial curve, poor fit] |  |
| NC(=O)C1CCN(C(=O)CN2C(=O)c3ccccc3S2(=O)=O)CC1 |  | inactive: 0.26% |
| COc1ccc(OC)c2c1C(=O)C(Cl)=C(Cl)C2=O | inconclusive: 20.6 µM [falling, single point] |  |
| CCC(=O)N(C1=C(NC)C(=O)c2ccccc2C1=O)C(C)C | inconclusive: 29.1 µM [falling, single point] |  |
| CC12CCC(=O)N1C(C(=O)Nc1cccc(S(=O)(=O)N3CCCCCC3)c1)CS2 (stereo not given) |  | inactive: 0.75% |
| CC(Sc1nc(=O)cc(N)n1CCc1ccccc1)C(=O)Nc1ccccc1C#N (stereo not given) |  | inactive: -4.87% |
| Cc1ccccc1OCC(=O)Nc1ccc(N2CCN(C(=O)C(C)C)CC2)c(Cl)c1 | inconclusive: 20.6 µM [falling, partial curve, poor fit] |  |
| Cc1cc(C)nc(-n2nc(C)c3c2N(C)C(=O)CC3c2ccc(Cl)cc2)n1 (stereo not given) |  | inactive: 1.7% |
| COc1ccc(N2CCN(C(=S)Nc3ccc(C)cc3C)CC2)cc1 |  | inactive: 5.65% |
| CC(=O)Nc1ccc(Nc2nc(C)c([N+](=O)[O-])c(Nc3ccccc3)n2)cc1 | inconclusive: 20.6 µM [falling, partial curve, poor fit] |  |
| Cc1ccc(C)c(NC(=O)c2ccc3ccccc3n2)c1 |  | inactive: -5.57% |
| Cc1nn(Cc2ccc(F)cc2)c(C)c1NC(=O)c1nn(C)cc1Cl |  | inactive: -10% |
| O=C(ONC(=O)C1C2C=CC(C2)C1C(=O)NOC(=O)c1ccccc1)c1ccccc1 (stereo not given) | inconclusive: 29.1 µM [falling, single point] |  |
| COc1cccc(/C=N/n2c(N)c(S(=O)(=O)c3cccs3)c3nc4ccccc4nc32)c1OC | inconclusive: 29.1 µM [falling, single point] |  |
| O=S(=O)(c1cccs1)N1CCN(c2ccnc3cc(Cl)ccc23)CC1 | inconclusive: 32.6 µM [falling, single point] |  |
| CC(=O)Nc1ccc(NC2=C(Cl)C(=O)c3ccccc3C2=O)cc1 | inconclusive: 29.1 µM [falling, single point] |  |

2 entries drawn at random from those above, as already listed:

| SMILES | Potency | activity change, negative = cytotoxicity |
| --- | --- | --- |
| NC(=O)C1CCN(C(=O)CN2C(=O)c3ccccc3S2(=O)=O)CC1 |  | inactive: 0.26% |
| COc1ccc(N2CCN(C(=S)Nc3ccc(C)cc3C)CC2)cc1 |  | inactive: 5.65% |
